# Library screen at single concentrations

Protein sequences, listed by entry. Tags and fused reporters are not part of them. Residues count along the entry.
UniProt Q8IDJ8, 1-583: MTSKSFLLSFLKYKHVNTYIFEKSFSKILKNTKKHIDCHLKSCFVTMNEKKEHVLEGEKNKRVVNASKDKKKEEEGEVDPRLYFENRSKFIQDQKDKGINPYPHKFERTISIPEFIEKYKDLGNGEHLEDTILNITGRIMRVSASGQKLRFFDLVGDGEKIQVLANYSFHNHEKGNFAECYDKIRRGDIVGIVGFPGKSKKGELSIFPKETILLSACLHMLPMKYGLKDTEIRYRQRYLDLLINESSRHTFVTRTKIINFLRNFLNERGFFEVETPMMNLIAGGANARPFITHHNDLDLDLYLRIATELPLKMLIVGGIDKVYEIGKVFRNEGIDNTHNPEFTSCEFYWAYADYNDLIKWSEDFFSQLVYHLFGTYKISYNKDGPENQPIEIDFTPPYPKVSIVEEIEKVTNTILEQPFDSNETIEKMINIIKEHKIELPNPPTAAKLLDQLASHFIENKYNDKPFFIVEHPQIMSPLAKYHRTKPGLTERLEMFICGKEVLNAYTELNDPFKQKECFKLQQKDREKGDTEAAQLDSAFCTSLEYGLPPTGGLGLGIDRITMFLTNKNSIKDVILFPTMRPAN
UniProt P9WPC5, whole entry: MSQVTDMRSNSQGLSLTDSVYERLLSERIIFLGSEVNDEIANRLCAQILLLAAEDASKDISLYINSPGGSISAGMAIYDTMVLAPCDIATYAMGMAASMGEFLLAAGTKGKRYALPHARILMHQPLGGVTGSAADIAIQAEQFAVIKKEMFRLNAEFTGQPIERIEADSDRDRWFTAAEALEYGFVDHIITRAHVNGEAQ
UniProt P9WPC3, whole entry partner: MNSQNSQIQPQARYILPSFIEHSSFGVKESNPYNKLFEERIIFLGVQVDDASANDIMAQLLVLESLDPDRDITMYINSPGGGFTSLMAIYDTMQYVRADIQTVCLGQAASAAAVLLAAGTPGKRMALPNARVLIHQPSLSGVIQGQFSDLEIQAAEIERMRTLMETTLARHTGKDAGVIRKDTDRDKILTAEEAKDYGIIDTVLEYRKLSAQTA

From ChEMBL document CHEMBL3988442, “University of Dundee, Small-Polar-MMV Screening Library” (2021).

PfKRS1: 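Lysine-tRNA ligase, Plasmodium falciparum 3D7 (UniProt Q8IDJ8). Enzyme assay of the cytosolic lysyl-tRNA synthetase in 384-well plates, read by luminescence. Compounds at 30 µM. Higher reads as stronger inhibition, judged from the few compounds that gave an IC50. About 69,000 compounds were tested under these conditions; 0.071% (about 49) showed 50% or more at least once.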
ClpP1P2: 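Protease assay of ClpP1P2, read by the AMC dye that it sets free. Target: ClpP1P2, Mycobacterium tuberculosis (UniProt P9WPC5 and UniProt P9WPC3). Tested at 50 µM. Higher reads as stronger inhibition, judged from the few compounds that gave an IC50. Most other retested compounds had strongly negative values. Size under these conditions: about 69,000 compounds, about 10 of them at 50% or above in at least one test.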

Values are the deposited “Percent Effect”, in %. How 0% and 100% were set is not recorded. Most values in the screen are low, and negative values occur. This is an unselected part of the compounds tested.

| compound | PfKRS1 | ClpP1P2 |
|---|---|---|
| `CCN(Cc1noc(C2CC2)n1)C(=O)c1onc2ccccc12` | -1.815 | -5.592 |
| `COc1ccc(-c2cccc(-c3ccn(CCN(C)C)n3)c2)nn1` | -2.667 | -5.659 |
| `Cc1ncnc2c1CCN(C(=O)c1ccnnc1)CC2` | 4.954 | -8.666 |
| `C=C(C)CN1CCN(Cc2nccn2C)C(C)C1` (centres undefined) | -0.5166 | -23.98 |
| `CCn1cnnc1C1CCN(C(=O)CCCOc2ccccc2)CC1` | 5.963 | -12.81 |
| `CN(C)CCCNCCC(Cc1ccccc1)C1CCOC(C)(C)C1` (centres undefined) | 2.131 | -9.279 |
| `Cc1ccc(C(=O)NS(=O)(=O)Cc2ccc(F)cc2)cc1S(C)(=O)=O` | 2.278 | -9.471 |
| `CN(C)C(=O)COCc1nn(C)c2c1CCN(Cc1ccco1)C2` | 6.248 | 0.9614 |
| `COCCN1CCc2c(CNC(=O)c3nccn3C)cncc2C1` | 1.588 | 11.89 |
| `c1cncc(-c2noc(CN3CCc4cncnc4C3)n2)c1` | 0.3869 | -43.45 |
| `CC(C(=O)NCCN1CCOCC1)n1cncn1` (centres undefined) | 0.6085 | -4.982 |
| `CC(C)NC(=O)N1CCC2(CC(C(=O)NCc3cccnc3)=NO2)C1` (centres undefined) | -0.1424 | -9.106 |
| `COC(=O)N1CCc2ccc(NC(=O)c3cn(C)nn3)cc2C1` | 2.615 | -10.08 |
| `COc1ccccc1S(=O)(=O)N1CCC2(CC1)OCCCC2O` (centres undefined) | 0.0853 | -20.27 |
| `O=C(CCCC1CCCC1)NS(=O)(=O)CC1CC1` | 1.773 | 0.6292 |
| `COC(=O)C1CCN(C(=O)Cn2ccc(-c3ccc(F)cc3)n2)CC1` | 2.881 | -0.3459 |
| `CN1CCCN(C(=O)c2cccc(S(=O)(=O)NCC3(C)COC3)c2)CC1` | -2.639 | -10.41 |
| `CC(=O)c1ccc(N2CCC3(CC2)CC(=O)N(C)C3)nc1` | -1.178 | 9.669 |
| `O=C(c1cn(-c2ccc(C(F)(F)F)cn2)nn1)N1CCCCCC1` | 1.359 | -3.668 |
| `c1ccc(OCCN2CCCC(c3noc(C4CC4)n3)C2)cc1` (centres undefined) | -1.157 | -14.81 |
| `CN(C)C(=O)COC1COC2(CCN(c3cccc(F)c3)CC2)C1` (centres undefined) | -0.8592 | 6.769 |
| `CC(C)N1CCc2[nH]nc(C(=O)N3CCN(C)CC3)c2C1` | 3.304 | -7.022 |
| `COCc1cccc(NCc2cccnc2)c1` | 1.35 | -9.606 |
| `COc1cccc(OCC2CCCN(C(C)=O)C2)c1` (centres undefined) | 5.972 | -1.738 |
| `Cn1cc(CNC2CC3(CCN(S(C)(=O)=O)CC3)c3ccccc32)cn1` (centres undefined) | 2.539 | 4.872 |
| `O=C(NCCC1CN(Cc2cccnc2)CCO1)c1ccsc1` (centres undefined) | 4.664 | 8.947 |
| `Cn1ccnc1CN1CCN(CCOc2cccc(C#N)c2)CC1` | -0.8831 | -8.249 |
| `O=C(c1ccc(-n2ccnc2)nn1)N1CCCC1CCc1ccccc1` (centres undefined) | 3.261 | 3.835 |
| `CC(C)(C)Cc1nnc(NCc2ccsc2)o1` | -5.74 | -7.37 |
| `COc1ccccc1OCCc1nnc(NC(=O)C2CC23CCC3)s1` (centres undefined) | -1.432 | 0.4137 |
| `Cn1ccnc(Sc2ccc(O)cc2)c1=O` | 6.095 | -0.119 |
| `CC(=O)N1CCC(NC(=O)N2CCCC2c2ccsc2)CC1` (centres undefined) | 1.928 | 13.45 |
| `O=C(c1cnc(O)cn1)N1C[C@@H]2CC[C@H](C1)N(Cc1ccccc1)C2` | 1.985 | 8.839 |
| `O=C(Cc1ccccc1)NC[C@H]1Cn2ccnc2CO1` | 0.5801 | -2.909 |
| `O=C(c1ccc(S(=O)(=O)NCc2ccon2)cc1)N1CCCCCC1` | 5.533 | -8.693 |
| `O=C([C@@H]1Cc2[nH]cnc2CN1CC1CC1)N1CCCC1` | -1.186 | -4.471 |
| `Cc1nc(C)c(CC(=O)N2C[C@H]3CC[C@@H]2CN(C(=O)N(C)C)C3)c(=O)[nH]1` | 0.5446 | -5.125 |
| `O=C1CCC2(CCCN(Cc3ccccc3F)C2)N1CC1CC1` (centres undefined) | 3.809 | -8.807 |
| `Cc1nc(C2CCN(C[C@H](C)CO)CC2)cc(N2CCOCC2)n1` | 9.247 | 3.367 |
| `Cc1nnc(CN(C)CCCOc2ccc(Cl)cc2)o1` | 4.728 | 5.915 |
| `CCn1nc(C)c(NC(=O)CN(C)C(C)c2nccs2)c1C` (centres undefined) | 4.137 | -6.101 |
| `O=C1NC(c2ccccc2)=N[C@@]12CC[C@@H]1CN(Cc3ccccc3)C[C@@H]12` | 2.776 | 0.978 |
| `Cc1cccc(CN2CC[C@H]3OCC[C@@]3(C(=O)N3CCCO3)C2)n1` | 1.702 | -14.05 |
| `Cn1cccc1C(=O)N1CCCCC1c1ccn2ccnc2n1` (centres undefined) | 0.8965 | -4.991 |